Measured values from PubChem BioAssay AID540276 (National Center for Advancing Translational Sciences (NCATS), 2011).
The campaign covered roughly 300,000 compounds. About 5,400 (1.8%) were called active. The shares of active, inactive and inconclusive entries below differ from those in the screen. The call rests on the fitted dose curve; tested in HEK293 cells. A potency beside an inconclusive call is a rough fit, not a confirmed value.

Assay: qHTS for inhibitors of binding or entry into cells for Marburg Virus
Conditions: Marburg virus pseudotyped entry inhibition, cell reporter; activity change, negative = inhibition: at 37.8 µM (top of the series) unless noted
On the % scale 0 is the no-effect control and ±100 the full control effect; potency means the concentration at half of the fitted maximal effect.

Row | Structure (SMILES) | Potency | activity change, negative = inhibition
1 | CCOC(=O)N(C)c1ccc(C(O)(C(=O)OC)C(F)(F)F)cc1 (stereo not given) | inactive | 
2 | CC(C)c1ccc(O)c(NC(=S)NC(=O)CCc2ccccc2)c1 | inconclusive: 3.55 µM [activator, single point] | 
3 | CCCN1CCN(S(=O)(=O)c2ccc(OC)c(Br)c2)CC1 | inconclusive: 2.82 µM [inhibitor, single point] | 
4 | CC(C)n1c(SCC(=O)Nc2ccccc2)nc2c1c(=O)n(C)c(=O)n2C | inconclusive: 10 µM [inhibitor, partial curve] | 
5 | O=C(NCc1ccco1)c1ccc(COc2cc(Cl)ccc2Cl)cc1 | inactive | 
6 | CCOc1ccc(C(=O)Nc2ccc3nc(SCCOc4ccccc4)sc3c2)cc1 | inactive | 
7 | CCN(CC)CCCNC(=O)c1ccc2c(=O)n(CCc3ccccc3)c(=O)[nH]c2c1 | inconclusive: 35.5 µM [inhibitor, single point] | 
8 | Fc1ccccc1N1CCN(C2CCCN(Cc3cccc(C(F)(F)F)c3)C2)CC1 (stereo not given) | inconclusive: 8.91 µM [inhibitor, partial curve, poor fit] | 
9 | CC(=O)c1c(C)cc(C)c(CSc2nc(C)cc(=O)[nH]2)c1C | inconclusive: 5.8 µM [inhibitor, partial curve, poor fit] | 
10 | COc1ccc(S(=O)(=O)NCC(c2ccc3c(c2)OCO3)N2CCOCC2)cc1C (stereo not given) | inactive | 
11 | Oc1ccc(N=Nc2cccc(Cl)c2)cc1C=Nc1ccc(N2CCOCC2)cc1 | inconclusive: 1.58 µM [activator, partial curve, poor fit] | 
12 | Cc1cc(-c2ccccc2)nc2[nH]n(-c3ccccc3)c(=O)c12 | inactive | 
13 | NC(=O)c1ccccc1NC(=O)c1ccc(-c2ccc(Br)cc2)o1 | inconclusive: 0.562 µM [activator, full curve, poor fit] | 
14 | O=C(CCNS(=O)(=O)c1ccccc1F)N1CCN(C/C=C/c2ccccc2)CC1 | inconclusive: 10 µM [inhibitor, partial curve, poor fit] | 
15 | Cc1ccc(S(=O)(=O)Nc2c(C)[nH]c(=O)[nH]c2=O)cc1C | inconclusive: 0.708 µM [activator, partial curve, poor fit] | 
16 | CCOc1ccc(Nc2ncnc3ccc([N+](=O)[O-])cc23)cc1 | inactive | 
17 | c1ccc(-n2ncc3c(NCc4ccc5c(c4)OCO5)ncnc32)cc1 | inconclusive: 29.1 µM [inhibitor, single point] | 
18 | COc1cccc(NC(=S)N(CCCN2CCOCC2)Cc2cn(C)c3ccccc23)c1 | inconclusive: 35.5 µM [inhibitor, single point] | 
19 | O=C(CSc1nnc(-c2ccccc2)o1)c1cccc([N+](=O)[O-])c1 | inactive | 
20 | O=C1CC(c2ccccc2)CN1C(=O)c1cccc([N+](=O)[O-])c1 (stereo not given) | inconclusive: 1 µM [inhibitor, partial curve, poor fit] | 
21 | CCOC(=O)Cc1csc(NC(=O)CSc2nc(N)c3c(C)c(C)sc3n2)n1 | inconclusive: 0.651 µM [inhibitor, full curve, poor fit] | 
22 | O=c1[nH]nc(SCc2ccccc2)c(=O)[nH]1 | inactive | 
23 | CCCN(CC(=O)Nc1ccccc1C)C(=O)C1CCN(S(=O)(=O)c2cccc(C(F)(F)F)c2)CC1 | inconclusive: 1 µM [inhibitor, full curve, poor fit] | 
24 | CCN(CC)C(C)C(=O)Nc1c2c(cc3c1CCC3)CCC2 (stereo not given) | active: 14.6 µM | 

Reprinted, nos. 4 to 8
Row | Structure (SMILES) | Potency | activity change, negative = inhibition
4 | CC(C)n1c(SCC(=O)Nc2ccccc2)nc2c1c(=O)n(C)c(=O)n2C | inconclusive: 10 µM [inhibitor, partial curve] | 
5 | O=C(NCc1ccco1)c1ccc(COc2cc(Cl)ccc2Cl)cc1 | inactive | 
6 | CCOc1ccc(C(=O)Nc2ccc3nc(SCCOc4ccccc4)sc3c2)cc1 | inactive | 
7 | CCN(CC)CCCNC(=O)c1ccc2c(=O)n(CCc3ccccc3)c(=O)[nH]c2c1 | inconclusive: 35.5 µM [inhibitor, single point] | 
8 | Fc1ccccc1N1CCN(C2CCCN(Cc3cccc(C(F)(F)F)c3)C2)CC1 (stereo not given) | inconclusive: 8.91 µM [inhibitor, partial curve, poor fit] | 

Following part

Row | Structure (SMILES) | Potency | activity change, negative = inhibition
25 | O=C(N1CCN=C1SCc1cccnc1)C12CC3CC(CC(C3)C1)C2 | inconclusive: 14.1 µM [inhibitor, partial curve, poor fit] | 
26 | CC(=O)Nc1sc2c(c1C(c1ccncc1)N1CCOCC1)CCCC2 (stereo not given) | inactive | 
27 | CC(=O)c1ccc(OCCCC(=O)Nc2ccc(C)c(S(=O)(=O)N(C)C)c2)cc1 | inconclusive: 35.5 µM [inhibitor, single point] | 
28 | Clc1ccc(/C=C/c2nc3ccccc3[nH]2)cc1 | active: 8.2 µM | 
29 | Cc1cccc(OCCn2ccnc2)c1C | inconclusive: 22.4 µM [activator, single point] | 
30 | Cc1ccc(NC(=O)C2Cc3ccccc3O/C2=N\O)cc1C (stereo not given) | inconclusive: 7.08 µM [activator, partial curve, poor fit] | 
31 | O=C(NCc1cccnc1)c1ccc(COc2ccccc2Br)cc1 | inconclusive: 22.4 µM [inhibitor, partial curve, poor fit] | 
32 | S=C(NNc1ccc2ccccc2c1)NC1CCCCC1 | inconclusive: 35.5 µM [inhibitor, single point] | 
33 | CC(C)(C)c1ccc(-c2conc2N)cc1 | inconclusive: 2.31 µM [activator, partial curve, poor fit] | 
34 | CCOC(=O)N1CCN(C(=O)c2ccc3c(c2)sc2nc(-c4ccccc4)cn23)CC1 | inconclusive: 35.5 µM [inhibitor, single point] | 
35 | O=C(NCCc1cccc(Cl)c1)c1cccs1 | inconclusive: 1.58 µM [activator, partial curve, poor fit] | 
36 | CC(=O)c1sc(NC(=O)C2(F)C(F)(F)C(F)(F)C(F)(F)C(F)(F)C2(F)F)nc1C | active: 2.59 µM | 
37 | CC(/C=N/NC(=O)Cc1cccn1C)=C\c1ccco1 | inactive | 
38 | CCCN1C(=O)CN(C2CCCCCC2)C(=O)C1c1ccc(C)cc1 (stereo not given) | inconclusive: 18.3 µM [inhibitor, partial curve, poor fit] | 
39 | O=C(CSc1nnc(-c2cccs2)o1)Oc1ccccc1 | inactive | 
40 | CCN(CC)S(=O)(=O)c1ccc2c3c(cccc13)C(=O)S2 | inconclusive: 0.164 µM [inhibitor, partial curve, poor fit] | 
41 | CCCOc1cccc(-c2cc(C(=O)N/N=C/c3cccnc3)c3ccccc3n2)c1 | inconclusive: 17.8 µM [inhibitor, partial curve, poor fit] | 
42 | CC(NC(=O)C1CCN(S(=O)(=O)c2cc([N+](=O)[O-])ccc2Cl)CC1)c1ccccc1 (stereo not given) | inconclusive: 35.5 µM [inhibitor, partial curve, poor fit] | 
43 | CCC(=O)Nc1cc(-c2nn(C)c(=O)c3ccccc23)ccc1OC | inconclusive: 0.461 µM [inhibitor, partial curve, poor fit] | 
44 | CCN(CC)C(=O)c1c(-c2ccccc2)c(-c2ccccc2)nn(C)c1=O | inconclusive: 3.55 µM [inhibitor, single point] | 
45 | COc1cc2nc(Cl)nc(N3CCCCC3)c2cc1OC | inconclusive: 12.6 µM [inhibitor, single point] | 
46 | Cc1[nH]nc(-c2ccc(O)c(C)c2O)c1Oc1ccccc1 | inactive | 
47 | CCNC(=O)COC(=O)c1[nH]c(C)c(C(=O)OC)c1C | inconclusive: 17.8 µM [inhibitor, single point] | 
48 | CCOC(=O)C1=C(c2ccccc2)NC(SCC(=O)Nc2ccccc2C)=C(C#N)C1c1ccco1 (stereo not given) | active: 23.1 µM | 

Row | Structure (SMILES) | Potency | activity change, negative = inhibition
49 | CCCOc1ccc(-c2cc(C(=O)NCC3CCCO3)c3ccccc3n2)cc1 (stereo not given) |  | inconclusive: 17.1% [activator] [at 46.1 µM]
50 | Cc1ccn2cc(-c3ccc(NS(=O)(=O)c4ccccc4)cc3)nc2c1 | inconclusive: 35.5 µM [inhibitor, single point] | 
51 | CNC(=O)CSc1nnc(C(C)C)n1C | inactive | 
52 | O=C(Nc1ccn(Cc2ccccc2)n1)c1n[nH]c([N+](=O)[O-])c1Cl | inconclusive: 4.47 µM [inhibitor, partial curve, poor fit] | 
53 | CCCCN(C)CCOc1ccccc1OCC | inconclusive: 16.4 µM [inhibitor, single point] | 
54 | c1ccc(C(c2nnnn2C2CCCCC2)N2CCc3ccccc3C2)nc1 (stereo not given) | inactive | 
55 | COCC(=O)Nc1cc(C(=O)NCCc2ccccc2)ccc1Cl | inconclusive: 6.31 µM [inhibitor, partial curve, poor fit] | 
56 | CC(=NNC(=S)N1CCCCCC1)c1ccccn1 | inconclusive: 0.0891 µM [inhibitor, full curve, poor fit] | 
57 | O=C(CSC1=NCCS1)NC(c1ccccc1)c1ccccc1 | inconclusive: 35.5 µM [inhibitor, single point] | 
58 | S=C(NCc1ccccc1)NCc1ccc2c(c1)OCO2 | inactive | 
59 | C#CCCCO/N=C1\C[C@@H](O)[C@@H](O)[C@@H]2[C@@H]3C(=O)N(Cc4ccc5c(c4)OCO5)C(=O)[C@@H]3CC[C@@H]12 | inactive | 
60 | Cc1ccc(CCNC(=O)c2ccc(CNS(=O)(=O)c3ccccc3)cc2)cc1 | inactive | 
61 | Cc1ccc(NCc2ccccc2O)c(C)c1 | inconclusive: 15.8 µM [activator, single point] | 
62 | CCOC(=O)N1CCN(C(=O)c2ccc3oc(CCCc4ccccc4)nc3c2)CC1 | inconclusive: 3.55 µM [activator, partial curve, poor fit] | 
63 | CC(C)c1ccc(NC(=O)CCS(=O)(=O)c2cccc3nonc23)cc1 | inconclusive: 12.6 µM [activator, partial curve, poor fit] | 
64 | O=S(=O)(NC1CCCC1)c1ccc(Br)s1 | inactive | 
65 | CCOC(=O)c1sc(N)c(C(N)=O)c1C | inactive | 
66 | Cc1cc(C)n(CC(=O)N/N=C/c2c[nH]c3ccccc23)n1 | inactive | 
67 | CCCN(C(=O)COc1cc(=O)n(CC)c2ccccc12)c1ccc(C(C)C)cc1 | inactive | 
68 | COc1cc(NC(=O)c2cc([N+](=O)[O-])ccc2NC(=O)CNCc2ccccn2)cc(OC)c1 | inactive | 
69 | COC(=O)c1ccc(Cn2c(SCc3ccccc3)nc3ccncc32)cc1 | inactive | 
70 | COc1ccc(OC)c(-c2csc(NC(=O)CN3C(=O)C4CCCCC4C3=O)n2)c1 (stereo not given) | inconclusive: 3.55 µM [inhibitor, single point] | 
